Results deposited as PubChem BioAssay AID602196 (INSERM, 2012)
Shown is an unselected part of about 23,000 reagents. 455 of them (2%) were called active. 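Active includes both protection and sensitisation; some change values fall well beyond the stated -50 to +50 range.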 Further read-outs or replicates are left out here. Not stated in the record: the amount of reagent.

Aim: 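Genes whose knock-down alters cisplatin killing of lung cancer cells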
Cell system: human A549 lung cancer cells
Reagents: siRNA pair against human genes
Duration: 48 h transfection before cisplatin; time from cisplatin to read-out not stated
Challenge: cisplatin at a dose killing half of control-siRNA cells; exact dose and duration not given
Read-out: 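Shift in cisplatin death relative to control siRNA, from -50 (all cells die) to +50 (no cells die); siRNAs harmful on their own scored 0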
Direction: two-siRNA summed score (-2 to +2): higher = both siRNAs protect from cisplatin killing; -2 means both sensitise; mean protection from cisplatin (shift in death): higher = protection from cisplatin killing
Call rule: 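Each siRNA scores 0 if harmful alone by LDH or WST-1, otherwise +1 if it reduces and -1 if it increases cisplatin killing; a gene is active when both siRNAs agree (sum +2 or -2)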
Calls: active = both siRNAs shift cisplatin killing the same way; inactive = no consistent shift, or siRNA harmful alone

PCDHGA3 [SID131511182] showed two-siRNA summed score (-2 to +2) = 0; mean protection from cisplatin (shift in death) (%) = 4.1; inactive.
C11orf68 [SID131505635] showed two-siRNA summed score (-2 to +2) = 0; mean protection from cisplatin (shift in death) (%) = -2.8; inactive.
Depletion of NR2C2AP [SID131508401] came out at: two-siRNA summed score (-2 to +2) = 0; mean protection from cisplatin (shift in death) (%) = 1; inactive.
STAU1 [SID131520183] scored two-siRNA summed score (-2 to +2) = 1; mean protection from cisplatin (shift in death) (%) = 9; inactive.
With knock-down of ANKRD42 [SID131515081], the record shows two-siRNA summed score (-2 to +2) = 0; mean protection from cisplatin (shift in death) (%) = 8.6; inactive.
After knock-down of TMEM127 [SID131515328], the record shows two-siRNA summed score (-2 to +2) = 0; mean protection from cisplatin (shift in death) (%) = 9; inactive.
Knock-down of TMEM68 [SID131501741] resulted in: two-siRNA summed score (-2 to +2) = -1; mean protection from cisplatin (shift in death) (%) = -7.6; inactive.
After knock-down of PER3 [SID131513481], the screen gave two-siRNA summed score (-2 to +2) = 0; mean protection from cisplatin (shift in death) (%) = 6.6; inactive.
After knock-down of CNKSR3 [SID131508665], the screen gave two-siRNA summed score (-2 to +2) = 0; mean protection from cisplatin (shift in death) (%) = 1.3; inactive.
WDR81 [SID131511188] scored two-siRNA summed score (-2 to +2) = 0; mean protection from cisplatin (shift in death) (%) = 4.1; inactive.
Depletion of NDUFAF7 [SID131507292] came out at: two-siRNA summed score (-2 to +2) = 0; mean protection from cisplatin (shift in death) (%) = -0.3; inactive.
With knock-down of CHST11 [SID131513858], the screen gave two-siRNA summed score (-2 to +2) = 0; mean protection from cisplatin (shift in death) (%) = 7.1; inactive.
MMP28 [SID131505427] scored two-siRNA summed score (-2 to +2) = 0; mean protection from cisplatin (shift in death) (%) = -3.1; inactive.
Depletion of SNRPD1 [SID131504484] gave: two-siRNA summed score (-2 to +2) = 0; mean protection from cisplatin (shift in death) (%) = -5.2; inactive.
For DNAL1 [SID131510128], the entry reads two-siRNA summed score (-2 to +2) = 0; mean protection from cisplatin (shift in death) (%) = 2.9; inactive.

Just “mean protection from cisplatin (shift in death) (%)”, for 4 of the entries above:
PER3 [SID131513481]	6.6
CNKSR3 [SID131508665]	1.3
WDR81 [SID131511188]	4.1
NDUFAF7 [SID131507292]	-0.3

The listing continues:
For DPEP3 [SID131515653], the values are two-siRNA summed score (-2 to +2) = 0; mean protection from cisplatin (shift in death) (%) = 9.5; inactive.
For LOC389660 [SID131519537], the entry reads two-siRNA summed score (-2 to +2) = 1; mean protection from cisplatin (shift in death) (%) = 6.2; inactive.
TOP1 [SID131510648] showed two-siRNA summed score (-2 to +2) = 0; mean protection from cisplatin (shift in death) (%) = 3.5; inactive.
Knock-down of TIMP1 [SID131516325] resulted in: two-siRNA summed score (-2 to +2) = 0; mean protection from cisplatin (shift in death) (%) = 10.7; inactive.
COPA [SID131513238] gave two-siRNA summed score (-2 to +2) = 0; mean protection from cisplatin (shift in death) (%) = 6.4; inactive.
MATN1 [SID131509394] gave two-siRNA summed score (-2 to +2) = 0; mean protection from cisplatin (shift in death) (%) = 2.1; inactive.
With knock-down of CDC42EP4 [SID131512686], the screen gave two-siRNA summed score (-2 to +2) = 0; mean protection from cisplatin (shift in death) (%) = 5.8; inactive.
After knock-down of TCL1A [SID131513472], the screen gave two-siRNA summed score (-2 to +2) = 0; mean protection from cisplatin (shift in death) (%) = 6.6; inactive.
EEA1 [SID131516544] scored two-siRNA summed score (-2 to +2) = 0; mean protection from cisplatin (shift in death) (%) = 11.1; inactive.
DLG3 [SID131502568] showed two-siRNA summed score (-2 to +2) = -1; mean protection from cisplatin (shift in death) (%) = -0.7; inactive.
Silencing of LOC388006 [SID131505498] came out at: two-siRNA summed score (-2 to +2) = 0; mean protection from cisplatin (shift in death) (%) = -3.1; inactive.
Against APEX2 [SID131501047], the values are two-siRNA summed score (-2 to +2) = -1; mean protection from cisplatin (shift in death) (%) = -12.9; inactive.
Against LOC441042 [SID131515587], the entry reads two-siRNA summed score (-2 to +2) = 0; mean protection from cisplatin (shift in death) (%) = 9.4; inactive.
Knock-down of FNDC4 [SID131512667] gave: two-siRNA summed score (-2 to +2) = 0; mean protection from cisplatin (shift in death) (%) = 5.7; inactive.
With knock-down of LOC392556 [SID131505798] the results were two-siRNA summed score (-2 to +2) = 0; mean protection from cisplatin (shift in death) (%) = -2.6; inactive.
Knock-down of LOC149620 [SID131511425] resulted in: two-siRNA summed score (-2 to +2) = 0; mean protection from cisplatin (shift in death) (%) = 4.3; inactive.
